Laboratory results as given in paper PMC4476799, “Englerin A Agonizes the TRPC4/C5 Cation Channels to Inhibit Tumor Cell Line Proliferation” (PLoS ONE, 2015).
This continues a long series; more values of the same kind are listed elsewhere.

Tested on: cancer cell lines from the cancer cell line encyclopedia (CCLE)
Assay: Cell line profiling (CLiP) proliferation experiment
Format: cell-based
Set-up: ACTIVITY_AREA: scale not given here; AMAX: unit not given here
Protocol: Compound profiling experiment and data analysis was performed as previously described. Data was imported and plotted using the Tibco Spotfire DXP application. Lines were categorized as sensitive, intermediate and refractory as follows: Amax<-40 & Inflection Point <2 ~ Sensitive, Amax>-20 & Inflection Point >10 ~ Refractory, all else were called Intermediate. Cancer Cell line HG-U133 Plus 2 data was processed and normalized as described. […] Five sets of refractory cell lines were generated from the pool of refractory cell lines trying to match the lineage composition of the set of sensitive cell lines. The limma package was used as previously described to perform the statistical comparison.

[1] = cell line MV-4-11 (haematopoietic_and_lymphoid_tissue)
[2] = cell line NALM-6 (haematopoietic_and_lymphoid_tissue)
[3] = cell line NB-1 (autonomic_ganglia)
[4] = cell line NB-4 (haematopoietic_and_lymphoid_tissue)
[5] = cell line NCI-H1048 (lung, small_cell_carcinoma)
[6] = cell line NCI-H1299 (lung, non_small_cell_carcinoma)
[7] = cell line NCI-H1355 (lung, adenocarcinoma)

`CC(C)[C@@]12C[C@@H](O)[C@@](C)(O1)[C@@H]1CC[C@@H](C)[C@H]1[C@@H]2OC(=O)/C=C/c1ccccc1` [Englerin B] was tested, and the RESPONSE (cell line MOR/CPR) was “INTERMEDIATE”, the ACTIVITY_AREA (cell line MOR/CPR (lung)) was 20.21 and the AMAX (cell line MOR/CPR (lung)) was -50.6. The RESPONSE (cell line MOR/CPR (lung)) was “INTERMEDIATE”, the ACTIVITY_AREA (cell line MSTO-211H) was 22.35 and the AMAX (cell line MSTO-211H) was -56.17. For the same compound, the RESPONSE (cell line MSTO-211H) was “INTERMEDIATE”, the ACTIVITY_AREA (cell line MSTO-211H (pleura)) was 22.35 and the AMAX (cell line MSTO-211H (pleura)) was -56.17. For the same compound, the RESPONSE (cell line MSTO-211H (pleura)) was “INTERMEDIATE”, the ACTIVITY_AREA [1] was 65.43 and the AMAX [1] was -93.67. The RESPONSE [1] was “INTERMEDIATE”, the ACTIVITY_AREA (cell line MeWo (skin)) was 40.65 and the AMAX (cell line MeWo (skin)) was -53.35. For the same compound, the RESPONSE (cell line MeWo (skin)) was “INTERMEDIATE”, the ACTIVITY_AREA (cell line MeWo (skin, NS)) was 40.65 and the AMAX (cell line MeWo (skin, NS)) was -53.35. For the same compound, the RESPONSE (cell line MeWo (skin, NS)) was “INTERMEDIATE”, the ACTIVITY_AREA (cell line Mel202) was 35.67 and the AMAX (cell line Mel202) was -41.41. The RESPONSE (cell line Mel202) was “INTERMEDIATE”, the ACTIVITY_AREA (cell line Mel202 (eye)) was 35.67 and the AMAX (cell line Mel202 (eye)) was -41.41. For the same compound, the RESPONSE (cell line Mel202 (eye)) was “INTERMEDIATE”, the ACTIVITY_AREA (cell line Mel285) was 14.87 and the AMAX (cell line Mel285) was -41.93. For the same compound, the RESPONSE (cell line Mel285) was “INTERMEDIATE”, the ACTIVITY_AREA (cell line Mel285 (eye)) was 14.87 and the AMAX (cell line Mel285 (eye)) was -41.93. The RESPONSE (cell line Mel285 (eye)) was “INTERMEDIATE”, the ACTIVITY_AREA (cell line NALM-6) was 58.63 and the AMAX (cell line NALM-6) was -98.04. The RESPONSE (cell line NALM-6) was “INTERMEDIATE”, the ACTIVITY_AREA [2] was 58.63 and the AMAX [2] was -98.04. For the same compound, the RESPONSE [2] was “INTERMEDIATE”, the ACTIVITY_AREA (cell line NB-1) was 67.54 and the AMAX (cell line NB-1) was -62.65. The RESPONSE (cell line NB-1) was “INTERMEDIATE”, the ACTIVITY_AREA [3] was 67.54 and the AMAX [3] was -62.65. For the same compound, the RESPONSE [3] was “INTERMEDIATE”, the ACTIVITY_AREA (cell line NB-4) was 42.88 and the AMAX (cell line NB-4) was -56.01. The RESPONSE (cell line NB-4) was “INTERMEDIATE”, the ACTIVITY_AREA [4] was 42.88 and the AMAX [4] was -56.01. The RESPONSE [4] was “INTERMEDIATE”, the ACTIVITY_AREA (cell line NCI-H28) was 68.28 and the AMAX (cell line NCI-H28) was -73.22. For the same compound, the RESPONSE (cell line NCI-H28) was “INTERMEDIATE”, the ACTIVITY_AREA (cell line NCI-H146 (lung)) was 25.77 and the AMAX (cell line NCI-H146 (lung)) was -5.12. For the same compound, the ACTIVITY_AREA (cell line NCI-H196) was 25.48, the AMAX (cell line NCI-H196) was -3.26 and the RESPONSE (cell line NCI-H196) was “REFRACTORY”. For the same compound, the ACTIVITY_AREA (cell line NCI-H226) was 84.84, the AMAX (cell line NCI-H226) was -41.44 and the RESPONSE (cell line NCI-H226) was “INTERMEDIATE”. For the same compound, the ACTIVITY_AREA (cell line NCI-H358) was 28.35, the AMAX (cell line NCI-H358) was -65.38 and the RESPONSE (cell line NCI-H358) was “INTERMEDIATE”. For the same compound, the ACTIVITY_AREA (cell line NCI-H441) was 12.16, the AMAX (cell line NCI-H441) was -29.95 and the RESPONSE (cell line NCI-H441) was “INTERMEDIATE”. The ACTIVITY_AREA (cell line NCI-H460) was 22.87, the AMAX (cell line NCI-H460) was -32.1 and the RESPONSE (cell line NCI-H460) was “INTERMEDIATE”. For the same compound, the ACTIVITY_AREA (cell line NCI-H647) was 65.46, the AMAX (cell line NCI-H647) was -63.95 and the RESPONSE (cell line NCI-H647) was “INTERMEDIATE”. The ACTIVITY_AREA (cell line NCI-H727) was 5.2, the AMAX (cell line NCI-H727) was 5.53 and the RESPONSE (cell line NCI-H727) was “REFRACTORY”. For the same compound, the ACTIVITY_AREA (cell line NCI-H810) was 14.12, the AMAX (cell line NCI-H810) was -56.53 and the RESPONSE (cell line NCI-H810) was “INTERMEDIATE”. For the same compound, the ACTIVITY_AREA (cell line NCI-H841) was 38.09, the AMAX (cell line NCI-H841) was -87.59 and the RESPONSE (cell line NCI-H841) was “INTERMEDIATE”. The ACTIVITY_AREA (cell line NCI-H1048 (lung)) was 157.35, the AMAX (cell line NCI-H1048 (lung)) was -63.14 and the RESPONSE (cell line NCI-H1048 (lung)) was “INTERMEDIATE”. The ACTIVITY_AREA [5] was 157.35, the AMAX [5] was -63.14 and the RESPONSE [5] was “INTERMEDIATE”. The ACTIVITY_AREA (cell line NCI-H1092) was 36.09, the AMAX (cell line NCI-H1092) was -35.83 and the RESPONSE (cell line NCI-H1092) was “INTERMEDIATE”. The ACTIVITY_AREA (cell line NCI-H1092 (lung)) was 36.09, the AMAX (cell line NCI-H1092 (lung)) was -35.83 and the RESPONSE (cell line NCI-H1092 (lung)) was “INTERMEDIATE”. The ACTIVITY_AREA (cell line NCI-H1299 (lung)) was 36.91, the AMAX (cell line NCI-H1299 (lung)) was -77.46 and the RESPONSE (cell line NCI-H1299 (lung)) was “INTERMEDIATE”. The ACTIVITY_AREA [6] was 36.91, the AMAX [6] was -77.46 and the RESPONSE [6] was “INTERMEDIATE”. The ACTIVITY_AREA (cell line NCI-H1341) was 41.08, the AMAX (cell line NCI-H1341) was -82.94 and the RESPONSE (cell line NCI-H1341) was “INTERMEDIATE”. The ACTIVITY_AREA (cell line NCI-H1341 (lung)) was 41.08, the AMAX (cell line NCI-H1341 (lung)) was -82.94 and the RESPONSE (cell line NCI-H1341 (lung)) was “INTERMEDIATE”. For the same compound, the ACTIVITY_AREA (cell line NCI-H1355 (lung)) was 88.25, the AMAX (cell line NCI-H1355 (lung)) was -92.69 and the RESPONSE (cell line NCI-H1355 (lung)) was “INTERMEDIATE”. For the same compound, the ACTIVITY_AREA [7] was 88.25, the AMAX [7] was -92.69 and the RESPONSE [7] was “INTERMEDIATE”. For the same compound, the ACTIVITY_AREA (cell line NCI-H1437 (lung)) was 17.29, the AMAX (cell line NCI-H1437 (lung)) was -45.72 and the RESPONSE (cell line NCI-H1437 (lung)) was “INTERMEDIATE”. For the same compound, the ACTIVITY_AREA (cell line NCI-H1563) was 37.41, the AMAX (cell line NCI-H1563) was -36.91 and the RESPONSE (cell line NCI-H1563) was “INTERMEDIATE”. The ACTIVITY_AREA (cell line NCI-H1563 (lung)) was 37.41, the AMAX (cell line NCI-H1563 (lung)) was -36.91 and the RESPONSE (cell line NCI-H1563 (lung)) was “INTERMEDIATE”. The ACTIVITY_AREA (cell line NCI-H1568) was 105.3, the AMAX (cell line NCI-H1568) was -84.01 and the RESPONSE (cell line NCI-H1568) was “INTERMEDIATE”. The ACTIVITY_AREA (cell line NCI-H1568 (lung)) was 105.3, the AMAX (cell line NCI-H1568 (lung)) was -84.01 and the RESPONSE (cell line NCI-H1568 (lung)) was “INTERMEDIATE”. For the same compound, the ACTIVITY_AREA (cell line NCI-H1573 (lung)) was 188.17, the AMAX (cell line NCI-H1573 (lung)) was -69.31 and the RESPONSE (cell line NCI-H1573 (lung)) was “INTERMEDIATE”. For the same compound, the ACTIVITY_AREA (cell line NCI-H1581 (lung)) was 35.15, the AMAX (cell line NCI-H1581 (lung)) was -92.8 and the RESPONSE (cell line NCI-H1581 (lung)) was “INTERMEDIATE”. For the same compound, the ACTIVITY_AREA (cell line NCI-H1623) was 10.28, the AMAX (cell line NCI-H1623) was -43.65 and the RESPONSE (cell line NCI-H1623) was “INTERMEDIATE”. The ACTIVITY_AREA (cell line NCI-H1623 (lung)) was 10.28, the AMAX (cell line NCI-H1623 (lung)) was -43.65 and the RESPONSE (cell line NCI-H1623 (lung)) was “INTERMEDIATE”. The ACTIVITY_AREA (cell line NCI-H1650 (lung)) was 37.78, the AMAX (cell line NCI-H1650 (lung)) was -54.12 and the RESPONSE (cell line NCI-H1650 (lung)) was “INTERMEDIATE”. The ACTIVITY_AREA (cell line NCI-H1651 (lung)) was 18.25, the AMAX (cell line NCI-H1651 (lung)) was -33.21 and the RESPONSE (cell line NCI-H1651 (lung)) was “INTERMEDIATE”. The ACTIVITY_AREA (cell line NCI-H1666) was 40.08, the AMAX (cell line NCI-H1666) was -59.97 and the RESPONSE (cell line NCI-H1666) was “INTERMEDIATE”. The ACTIVITY_AREA (cell line NCI-H1666 (lung)) was 40.08, the AMAX (cell line NCI-H1666 (lung)) was -59.97 and the RESPONSE (cell line NCI-H1666 (lung)) was “INTERMEDIATE”. For the same compound, the ACTIVITY_AREA (cell line NCI-H1693) was 22.07, the AMAX (cell line NCI-H1693) was -29.69 and the RESPONSE (cell line NCI-H1693) was “INTERMEDIATE”. The ACTIVITY_AREA (cell line NCI-H1693 (lung)) was 22.07, the AMAX (cell line NCI-H1693 (lung)) was -29.69 and the RESPONSE (cell line NCI-H1693 (lung)) was “INTERMEDIATE”. The ACTIVITY_AREA (cell line NCI-H1703) was 55.52, the AMAX (cell line NCI-H1703) was -83.26 and the RESPONSE (cell line NCI-H1703) was “INTERMEDIATE”. For the same compound, the ACTIVITY_AREA (cell line NCI-H1703 (lung)) was 55.52, the AMAX (cell line NCI-H1703 (lung)) was -83.26 and the RESPONSE (cell line NCI-H1703 (lung)) was “INTERMEDIATE”. The ACTIVITY_AREA (cell line NCI-H1734) was 38.35, the AMAX (cell line NCI-H1734) was -74.81 and the RESPONSE (cell line NCI-H1734) was “INTERMEDIATE”. For the same compound, the ACTIVITY_AREA (cell line NCI-H1734 (lung)) was 38.35, the AMAX (cell line NCI-H1734 (lung)) was -74.81 and the RESPONSE (cell line NCI-H1734 (lung)) was “INTERMEDIATE”. For the same compound, the ACTIVITY_AREA (cell line NCI-H1781) was 117.95, the AMAX (cell line NCI-H1781) was -63.31 and the RESPONSE (cell line NCI-H1781) was “INTERMEDIATE”. The ACTIVITY_AREA (cell line NCI-H1781 (lung)) was 117.95.
